From PMC8788333
Results are given in words; binding and its absence hold for the method and conditions named. In cells and extracts the contact can be indirect. Some binding calls cover weakened binding; strength is not graded here. Where a sequence is shown, tags or fusion partners need not be part of it.

Sequences of proteins named here, by UniProt entry; tags and fusion partners are left off.
UniProt O02799: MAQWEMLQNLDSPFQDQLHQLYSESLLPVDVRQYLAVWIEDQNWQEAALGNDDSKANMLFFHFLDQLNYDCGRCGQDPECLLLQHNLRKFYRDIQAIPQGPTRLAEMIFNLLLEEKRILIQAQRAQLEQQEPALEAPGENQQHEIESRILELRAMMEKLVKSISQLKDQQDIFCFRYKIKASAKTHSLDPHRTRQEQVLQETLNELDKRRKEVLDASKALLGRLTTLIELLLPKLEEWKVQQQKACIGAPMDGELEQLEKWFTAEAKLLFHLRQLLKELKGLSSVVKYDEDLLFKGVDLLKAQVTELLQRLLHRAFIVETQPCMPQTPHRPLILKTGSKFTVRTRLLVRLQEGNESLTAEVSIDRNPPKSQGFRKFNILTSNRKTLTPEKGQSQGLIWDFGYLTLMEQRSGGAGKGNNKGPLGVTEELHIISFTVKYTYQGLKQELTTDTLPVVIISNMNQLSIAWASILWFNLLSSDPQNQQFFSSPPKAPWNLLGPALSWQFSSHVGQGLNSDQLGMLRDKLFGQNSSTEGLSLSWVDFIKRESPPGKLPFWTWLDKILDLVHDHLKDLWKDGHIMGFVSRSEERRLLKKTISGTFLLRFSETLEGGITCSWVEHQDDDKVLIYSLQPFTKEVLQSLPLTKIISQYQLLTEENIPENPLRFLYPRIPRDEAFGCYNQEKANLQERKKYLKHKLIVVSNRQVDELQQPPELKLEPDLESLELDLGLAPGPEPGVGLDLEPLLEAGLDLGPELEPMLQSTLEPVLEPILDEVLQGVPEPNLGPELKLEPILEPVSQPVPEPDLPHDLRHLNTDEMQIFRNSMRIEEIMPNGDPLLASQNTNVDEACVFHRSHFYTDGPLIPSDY

Target: T1, HA-STAT1 (porcine STAT1, HA-tagged) (porcine) (UniProt Q764M5)
T1 sequence: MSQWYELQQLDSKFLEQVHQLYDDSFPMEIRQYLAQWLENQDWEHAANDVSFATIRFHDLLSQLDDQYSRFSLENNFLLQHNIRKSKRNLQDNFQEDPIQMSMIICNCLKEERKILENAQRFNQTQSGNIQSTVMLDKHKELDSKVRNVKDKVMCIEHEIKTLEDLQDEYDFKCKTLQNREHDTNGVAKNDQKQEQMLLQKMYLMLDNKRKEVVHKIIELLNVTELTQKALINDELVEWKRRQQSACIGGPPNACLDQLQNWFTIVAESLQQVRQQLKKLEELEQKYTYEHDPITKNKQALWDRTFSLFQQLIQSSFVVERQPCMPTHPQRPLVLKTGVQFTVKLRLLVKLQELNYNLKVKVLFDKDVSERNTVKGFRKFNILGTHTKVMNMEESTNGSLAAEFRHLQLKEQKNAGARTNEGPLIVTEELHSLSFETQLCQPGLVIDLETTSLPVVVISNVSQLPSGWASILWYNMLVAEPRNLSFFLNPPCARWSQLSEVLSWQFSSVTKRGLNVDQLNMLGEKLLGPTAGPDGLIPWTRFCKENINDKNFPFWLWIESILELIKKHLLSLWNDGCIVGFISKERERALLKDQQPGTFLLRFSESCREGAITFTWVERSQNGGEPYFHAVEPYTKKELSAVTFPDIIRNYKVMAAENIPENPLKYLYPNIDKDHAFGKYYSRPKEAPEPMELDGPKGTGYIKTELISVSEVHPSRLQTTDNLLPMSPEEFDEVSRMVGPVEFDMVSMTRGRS
Experiment: co-IP

binding: binds
Substance: Myc-STAT2 (porcine STAT2, Myc-tagged) (from UniProt O02799 1-864)
